Assay results reported in article PMC5853475.
These are yes or no findings as the source states them, for the method shown. For some assays here: Binding seen in cells or lysates may run through a third protein. Some results given as binding are weak or reduced against the parent protein; the word gives no strength. Where a sequence is shown, tags or fusion partners need not be part of it. Each block holds one binder with its values, some of them ahead of it.

Tests used:
[1] = biological target: T1, RGL1 with a deletion of 159 amino acids in its N-terminal (BD-RGL1) (Arabidopsis thaliana) (UniProt Q9C8Y3); assay: two-hybrid; pairwise test; truncated RGL1 in pGBKT7 (BD), full-length bHLH48 or bHLH60 in pGADT7 (AD); growth on synthetic dropout medium lacking Leu/Trp/His/Ade
T1 sequence: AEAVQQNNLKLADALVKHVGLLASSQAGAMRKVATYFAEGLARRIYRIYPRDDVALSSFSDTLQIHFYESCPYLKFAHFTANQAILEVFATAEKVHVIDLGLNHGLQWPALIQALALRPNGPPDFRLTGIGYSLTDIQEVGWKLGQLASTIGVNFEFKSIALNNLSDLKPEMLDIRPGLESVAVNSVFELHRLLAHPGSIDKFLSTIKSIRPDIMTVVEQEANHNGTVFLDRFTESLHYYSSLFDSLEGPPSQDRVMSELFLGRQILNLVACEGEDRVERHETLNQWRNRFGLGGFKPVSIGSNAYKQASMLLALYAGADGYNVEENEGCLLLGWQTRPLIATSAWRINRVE

[2] = biological target: T2, Flag-RGL1 (Arabidopsis thaliana) (UniProt Q9C8Y3); assay: co-IP; Myc-bHLH48 and Flag-RGL1 transiently co-expressed in tobacco leaves, treated with MG132 and paclobutrazol; Flag antibody for precipitation, Myc antibody for detection
T2 sequence: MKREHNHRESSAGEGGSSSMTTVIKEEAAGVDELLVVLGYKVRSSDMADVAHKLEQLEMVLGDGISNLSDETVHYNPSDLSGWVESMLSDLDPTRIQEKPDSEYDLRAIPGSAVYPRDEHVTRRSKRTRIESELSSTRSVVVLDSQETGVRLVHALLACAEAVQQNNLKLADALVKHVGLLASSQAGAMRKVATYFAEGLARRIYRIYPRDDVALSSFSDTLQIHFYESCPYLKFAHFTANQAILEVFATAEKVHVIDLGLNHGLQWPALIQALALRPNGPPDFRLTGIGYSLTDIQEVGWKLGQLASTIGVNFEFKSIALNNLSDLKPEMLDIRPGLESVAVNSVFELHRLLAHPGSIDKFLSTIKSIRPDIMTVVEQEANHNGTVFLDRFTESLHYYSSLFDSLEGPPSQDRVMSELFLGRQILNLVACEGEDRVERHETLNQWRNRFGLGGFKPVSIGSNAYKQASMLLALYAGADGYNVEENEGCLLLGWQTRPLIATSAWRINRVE

[3] = biological target: T3, RGL1-cYFP (Arabidopsis thaliana) (UniProt Q9C8Y3); assay: split reporter; BiFC; nYFP and cYFP fusions co-expressed by Agrobacterium infiltration in N. benthamiana leaf epidermal cells; 24 °C, observed after 48 h
T3 sequence: T2 sequence

B1: AD-bHLH48 (full-length bHLH48 in pGADT7) (protein, UniProt Q8VZ02 1-327)
chain: MDLTQGFRARSGVVGPVAGLESLNFSDEFRHLVTTMPPETTGGSFTALLEMPVTQAMELLHFPDSSSSQARTVTSGDISPTTLHPFGALTFPSNSLLLDRAARFSVIATEQNGNFSGETANSLPSNPGANLDRVKAEPAETDSMVENQNQSYSSGKRKEREKKVKSSTKKNKSSVESDKLPYVHVRARRGQATDNHSLAERARREKINARMKLLQELVPGCDKIQGTALVLDEIINHVQTLQRQVEMLSMRLAAVNPRIDFNLDSILASENGSLMDGSFNAESYHQLQQWPFDGYHQPEWGREEDHHQANFSMGSATLHPNQVKMEL
binding [1]: binds

B2: Myc-bHLH48 (protein, UniProt Q8VZ02 1-327)
chain: B1 chain
binding [2]: binds

B3: bHLH48-nYFP (protein, UniProt Q8VZ02 1-327)
chain: B1 chain
binding [3]: binds

Continued, values first:

binding [1]: binds
B4: AD-bHLH60 (full-length bHLH60 in pGADT7) (protein, UniProt Q3EAI1 1-426)
chain: MDLTGGFGARSGGVGPCREPIGLESLHLGDEFRQLVTTLPPENPGGSFTALLELPPTQAVELLHFTDSSSSQQAAVTGIGGEIPPPLHSFGGTLAFPSNSVLMERAARFSVIATEQQNGNISGETPTSSVPSNSSANLDRVKTEPAETDSSQRLISDSAIENQIPCPNQNNRNGKRKDFEKKGKSSTKKNKSSEENEKLPYVHVRARRGQATDSHSLAERARREKINARMKLLQELVPGCDKGTDFGGKIKIKVCFGVHLLMISGKKVAIFLWKVSCEDLIDCSFSPPRIQGTALVLDEIINHVQSLQRQVEMLSMRLAAVNPRIDFNLDTILASENGSLMDGSFNAAPMQLAWPQQAIETEQSFHHRQLQQPPTQQWPFDGLNQPVWGREEDQAHGNDNSNLMAVSENVMVASANLHPNQVKMEL

binding [3]: binds
B5: bHLH60-nYFP (protein, UniProt Q3EAI1 1-426)
chain: B4 chain
